# Test results as given in the supplement of paper PMC6411743.
# The chains behind the UniProt entries cited, without tags or fusion partners. Where a name states a change or a piece, a line headed by the entry shows the natural chain unless it says otherwise.
# UniProt P40692: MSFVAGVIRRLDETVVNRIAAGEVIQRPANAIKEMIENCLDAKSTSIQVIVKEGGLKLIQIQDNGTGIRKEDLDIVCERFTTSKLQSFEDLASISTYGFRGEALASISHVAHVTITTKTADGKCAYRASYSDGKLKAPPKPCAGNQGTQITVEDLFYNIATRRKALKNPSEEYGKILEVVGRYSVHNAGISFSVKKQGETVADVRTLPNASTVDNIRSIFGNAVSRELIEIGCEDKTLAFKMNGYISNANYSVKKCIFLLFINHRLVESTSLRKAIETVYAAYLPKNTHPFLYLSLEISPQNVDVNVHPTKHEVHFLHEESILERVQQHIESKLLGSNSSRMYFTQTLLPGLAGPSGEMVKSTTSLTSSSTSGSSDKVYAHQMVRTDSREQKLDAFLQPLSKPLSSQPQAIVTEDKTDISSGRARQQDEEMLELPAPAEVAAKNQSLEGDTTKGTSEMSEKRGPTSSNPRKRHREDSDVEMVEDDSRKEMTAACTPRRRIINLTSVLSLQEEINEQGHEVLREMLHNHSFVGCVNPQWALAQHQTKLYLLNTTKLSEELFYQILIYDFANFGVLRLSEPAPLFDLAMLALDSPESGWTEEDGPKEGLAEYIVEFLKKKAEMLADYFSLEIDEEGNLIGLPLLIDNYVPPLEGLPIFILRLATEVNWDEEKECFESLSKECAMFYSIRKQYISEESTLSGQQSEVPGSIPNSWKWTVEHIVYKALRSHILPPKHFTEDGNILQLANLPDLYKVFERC
# UniProt P49458: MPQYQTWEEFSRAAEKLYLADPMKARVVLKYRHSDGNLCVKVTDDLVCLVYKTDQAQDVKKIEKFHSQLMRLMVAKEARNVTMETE
# UniProt P42574: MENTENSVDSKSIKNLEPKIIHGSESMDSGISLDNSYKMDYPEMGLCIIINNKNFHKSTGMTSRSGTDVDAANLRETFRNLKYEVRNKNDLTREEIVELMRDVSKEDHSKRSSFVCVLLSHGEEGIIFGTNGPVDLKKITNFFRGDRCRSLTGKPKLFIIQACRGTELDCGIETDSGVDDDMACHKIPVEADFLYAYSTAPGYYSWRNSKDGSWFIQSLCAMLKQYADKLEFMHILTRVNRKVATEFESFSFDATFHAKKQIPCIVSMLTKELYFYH
# UniProt P42285: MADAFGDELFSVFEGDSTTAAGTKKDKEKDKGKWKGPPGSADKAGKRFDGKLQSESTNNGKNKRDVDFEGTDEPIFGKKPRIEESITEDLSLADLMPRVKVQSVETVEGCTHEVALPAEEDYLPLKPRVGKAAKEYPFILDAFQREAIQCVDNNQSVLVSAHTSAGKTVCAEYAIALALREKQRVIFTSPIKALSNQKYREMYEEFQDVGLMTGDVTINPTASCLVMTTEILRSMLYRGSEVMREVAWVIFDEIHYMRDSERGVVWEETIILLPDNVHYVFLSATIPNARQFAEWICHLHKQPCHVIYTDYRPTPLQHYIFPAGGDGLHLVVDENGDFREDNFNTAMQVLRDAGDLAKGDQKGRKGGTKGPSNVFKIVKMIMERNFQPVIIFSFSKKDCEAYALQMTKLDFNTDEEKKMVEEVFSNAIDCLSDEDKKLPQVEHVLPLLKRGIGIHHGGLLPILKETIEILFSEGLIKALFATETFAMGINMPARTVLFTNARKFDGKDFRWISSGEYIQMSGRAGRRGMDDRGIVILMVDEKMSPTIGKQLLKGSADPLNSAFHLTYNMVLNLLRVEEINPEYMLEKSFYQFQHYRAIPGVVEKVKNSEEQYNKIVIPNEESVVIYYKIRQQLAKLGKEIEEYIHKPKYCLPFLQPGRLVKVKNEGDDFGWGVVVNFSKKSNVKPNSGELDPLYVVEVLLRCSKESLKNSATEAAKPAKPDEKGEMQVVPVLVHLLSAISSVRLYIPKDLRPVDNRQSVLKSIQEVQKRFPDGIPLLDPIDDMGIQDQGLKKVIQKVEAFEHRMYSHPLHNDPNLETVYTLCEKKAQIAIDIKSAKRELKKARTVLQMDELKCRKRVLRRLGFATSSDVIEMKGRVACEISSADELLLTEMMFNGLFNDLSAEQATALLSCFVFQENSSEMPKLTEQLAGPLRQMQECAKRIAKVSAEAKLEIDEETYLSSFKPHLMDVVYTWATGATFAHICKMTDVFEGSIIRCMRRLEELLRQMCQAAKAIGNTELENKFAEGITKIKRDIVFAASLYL
# UniProt P55011: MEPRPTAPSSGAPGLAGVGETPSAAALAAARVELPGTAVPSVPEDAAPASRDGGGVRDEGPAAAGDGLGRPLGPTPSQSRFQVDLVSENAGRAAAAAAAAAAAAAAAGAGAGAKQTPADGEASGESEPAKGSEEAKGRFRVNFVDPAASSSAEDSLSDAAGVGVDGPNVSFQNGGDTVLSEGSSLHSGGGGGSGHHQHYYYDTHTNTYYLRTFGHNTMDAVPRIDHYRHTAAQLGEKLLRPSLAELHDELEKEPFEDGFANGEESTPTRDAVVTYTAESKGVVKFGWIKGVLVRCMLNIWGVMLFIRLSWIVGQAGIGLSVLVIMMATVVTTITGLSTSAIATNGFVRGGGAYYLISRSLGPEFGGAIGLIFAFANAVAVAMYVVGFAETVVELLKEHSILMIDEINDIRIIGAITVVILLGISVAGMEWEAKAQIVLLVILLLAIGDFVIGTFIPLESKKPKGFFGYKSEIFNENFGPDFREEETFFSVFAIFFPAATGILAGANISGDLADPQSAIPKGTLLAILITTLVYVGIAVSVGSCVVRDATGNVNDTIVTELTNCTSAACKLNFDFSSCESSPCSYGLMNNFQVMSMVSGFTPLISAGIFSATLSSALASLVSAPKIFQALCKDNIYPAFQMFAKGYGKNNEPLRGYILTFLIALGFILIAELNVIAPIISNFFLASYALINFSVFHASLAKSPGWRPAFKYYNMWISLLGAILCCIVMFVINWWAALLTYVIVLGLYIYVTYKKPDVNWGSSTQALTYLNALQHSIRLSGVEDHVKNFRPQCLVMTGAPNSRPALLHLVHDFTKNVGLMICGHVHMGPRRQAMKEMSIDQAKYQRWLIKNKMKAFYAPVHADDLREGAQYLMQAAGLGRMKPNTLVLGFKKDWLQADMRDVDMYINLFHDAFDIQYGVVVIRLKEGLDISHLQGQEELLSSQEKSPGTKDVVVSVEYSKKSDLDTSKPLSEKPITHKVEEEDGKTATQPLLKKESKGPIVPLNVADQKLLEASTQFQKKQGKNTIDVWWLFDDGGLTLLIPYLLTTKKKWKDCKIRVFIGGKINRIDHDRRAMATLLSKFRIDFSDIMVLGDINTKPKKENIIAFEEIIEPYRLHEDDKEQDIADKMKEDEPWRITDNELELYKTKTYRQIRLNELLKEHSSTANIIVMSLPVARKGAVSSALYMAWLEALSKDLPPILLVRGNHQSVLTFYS
# UniProt P55072, whole entry, looked up: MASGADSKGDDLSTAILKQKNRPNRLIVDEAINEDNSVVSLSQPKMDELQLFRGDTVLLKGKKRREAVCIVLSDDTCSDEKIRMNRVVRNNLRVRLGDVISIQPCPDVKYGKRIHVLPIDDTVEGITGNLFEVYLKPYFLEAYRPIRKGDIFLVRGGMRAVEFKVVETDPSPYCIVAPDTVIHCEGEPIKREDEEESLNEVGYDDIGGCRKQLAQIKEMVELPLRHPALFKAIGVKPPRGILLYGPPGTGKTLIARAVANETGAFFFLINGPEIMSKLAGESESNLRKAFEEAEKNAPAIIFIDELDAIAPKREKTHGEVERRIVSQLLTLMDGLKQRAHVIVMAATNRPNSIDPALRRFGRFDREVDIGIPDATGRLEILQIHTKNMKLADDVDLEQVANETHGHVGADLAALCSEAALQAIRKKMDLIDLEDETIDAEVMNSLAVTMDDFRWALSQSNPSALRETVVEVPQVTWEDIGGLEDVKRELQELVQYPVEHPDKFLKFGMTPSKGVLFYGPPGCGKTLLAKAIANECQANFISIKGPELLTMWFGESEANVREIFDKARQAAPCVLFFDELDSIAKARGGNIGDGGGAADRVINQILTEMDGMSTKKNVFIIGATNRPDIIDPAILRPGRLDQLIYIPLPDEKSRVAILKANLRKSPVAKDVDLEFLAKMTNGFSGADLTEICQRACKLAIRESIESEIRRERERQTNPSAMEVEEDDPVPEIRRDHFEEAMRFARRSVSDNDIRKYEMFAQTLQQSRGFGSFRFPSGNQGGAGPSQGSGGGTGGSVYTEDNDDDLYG
# UniProt P49773: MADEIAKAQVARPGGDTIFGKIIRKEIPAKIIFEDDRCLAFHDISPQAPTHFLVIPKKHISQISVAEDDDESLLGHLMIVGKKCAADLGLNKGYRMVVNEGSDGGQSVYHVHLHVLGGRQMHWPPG
# UniProt P53384: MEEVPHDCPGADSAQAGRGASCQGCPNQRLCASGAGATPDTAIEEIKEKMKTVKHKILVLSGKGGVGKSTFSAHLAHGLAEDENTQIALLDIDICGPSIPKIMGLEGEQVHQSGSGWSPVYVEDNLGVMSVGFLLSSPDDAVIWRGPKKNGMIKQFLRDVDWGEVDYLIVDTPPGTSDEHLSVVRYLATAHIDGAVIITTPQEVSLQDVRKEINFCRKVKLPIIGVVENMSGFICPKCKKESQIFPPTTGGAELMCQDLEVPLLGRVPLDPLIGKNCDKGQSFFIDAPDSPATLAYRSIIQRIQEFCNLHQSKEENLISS
# UniProt P53992: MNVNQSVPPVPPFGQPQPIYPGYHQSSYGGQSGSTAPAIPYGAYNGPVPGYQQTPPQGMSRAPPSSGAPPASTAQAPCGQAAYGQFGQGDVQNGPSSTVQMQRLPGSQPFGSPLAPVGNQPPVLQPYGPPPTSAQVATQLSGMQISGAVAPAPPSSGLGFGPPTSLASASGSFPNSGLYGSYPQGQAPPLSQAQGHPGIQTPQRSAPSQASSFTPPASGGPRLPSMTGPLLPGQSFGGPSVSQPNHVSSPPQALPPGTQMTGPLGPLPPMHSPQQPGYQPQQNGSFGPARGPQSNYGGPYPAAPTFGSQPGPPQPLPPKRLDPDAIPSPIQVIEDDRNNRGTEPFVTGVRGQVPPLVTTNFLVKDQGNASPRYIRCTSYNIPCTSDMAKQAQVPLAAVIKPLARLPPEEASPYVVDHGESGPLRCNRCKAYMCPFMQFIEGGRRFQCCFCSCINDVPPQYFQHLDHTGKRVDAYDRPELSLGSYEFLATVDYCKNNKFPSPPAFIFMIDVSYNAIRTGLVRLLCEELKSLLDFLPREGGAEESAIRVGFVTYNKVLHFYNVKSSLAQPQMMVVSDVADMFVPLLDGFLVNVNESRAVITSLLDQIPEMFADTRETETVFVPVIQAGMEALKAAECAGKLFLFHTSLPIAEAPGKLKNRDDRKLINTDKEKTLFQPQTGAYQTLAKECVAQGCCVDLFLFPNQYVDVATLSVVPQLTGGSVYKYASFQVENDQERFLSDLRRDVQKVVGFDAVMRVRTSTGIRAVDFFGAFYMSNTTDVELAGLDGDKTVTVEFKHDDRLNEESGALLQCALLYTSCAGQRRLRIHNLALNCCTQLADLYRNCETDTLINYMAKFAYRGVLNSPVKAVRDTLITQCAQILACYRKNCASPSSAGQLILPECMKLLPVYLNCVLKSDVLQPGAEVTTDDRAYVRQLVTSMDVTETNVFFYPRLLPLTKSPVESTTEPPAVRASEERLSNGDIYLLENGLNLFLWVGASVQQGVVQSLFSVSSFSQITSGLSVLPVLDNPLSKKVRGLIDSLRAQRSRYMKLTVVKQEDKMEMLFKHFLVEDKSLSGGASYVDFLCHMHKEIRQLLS
# UniProt P51858: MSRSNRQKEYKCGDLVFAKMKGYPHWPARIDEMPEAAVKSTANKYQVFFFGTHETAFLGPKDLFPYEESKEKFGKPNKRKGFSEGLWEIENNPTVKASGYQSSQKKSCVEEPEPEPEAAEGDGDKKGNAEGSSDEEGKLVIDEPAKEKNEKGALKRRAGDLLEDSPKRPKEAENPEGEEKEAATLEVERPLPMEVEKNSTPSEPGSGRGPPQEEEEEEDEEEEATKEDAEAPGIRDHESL
# UniProt P48506: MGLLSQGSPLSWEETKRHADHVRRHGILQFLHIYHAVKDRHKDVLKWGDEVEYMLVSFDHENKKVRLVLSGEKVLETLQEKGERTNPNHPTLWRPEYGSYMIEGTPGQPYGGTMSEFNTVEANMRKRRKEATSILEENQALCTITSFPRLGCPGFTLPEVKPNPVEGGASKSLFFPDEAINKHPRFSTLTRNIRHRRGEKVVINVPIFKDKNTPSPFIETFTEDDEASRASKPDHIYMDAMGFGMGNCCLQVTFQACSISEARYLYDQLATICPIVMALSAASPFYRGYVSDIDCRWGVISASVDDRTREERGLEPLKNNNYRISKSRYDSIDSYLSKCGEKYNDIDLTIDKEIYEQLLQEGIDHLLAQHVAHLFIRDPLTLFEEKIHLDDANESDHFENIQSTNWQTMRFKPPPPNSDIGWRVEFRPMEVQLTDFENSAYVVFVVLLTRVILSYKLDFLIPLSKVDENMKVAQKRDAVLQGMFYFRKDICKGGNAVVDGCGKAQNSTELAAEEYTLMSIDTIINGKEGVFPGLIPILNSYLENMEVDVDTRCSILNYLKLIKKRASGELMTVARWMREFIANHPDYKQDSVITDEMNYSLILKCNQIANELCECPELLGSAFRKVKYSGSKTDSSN
# ± gives the standard deviation of the averaged measurements. The entries are a selection whose mix differs from that of the whole data set. Small differences around the control level are noise.
# Compound: Nc1ncnc2c1ncn2[C@@H]1O[C@H](COP(=O)(O)OP(=O)(O)NP(=O)(O)O)[C@@H](O)[C@H]1O [adenylyl imidodiphosphate]
# Assay: NP40-soluble protein abundance relative to vehicle (solubility fold change) (ratio); higher = more soluble protein in presence of AMP-PNP
# Method in brief: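 Eight concentrations, 0.1 to 10 mM, were tested on Jurkat crude lysate for 10 min at room temperature and then 3 min at 37 °C, in three independent experiments. The lysate was solubilised with 0.8% NP40 and benzonase, ultracentrifuged, and the supernatant TMT-labelled for LC-MS/MS. Each value is the fold change against the detergent-processed vehicle in its own replicate, from vsn-normalised intensities.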
Target,NP40-soluble protein abundance (concentration: 0.1mM),NP40-soluble protein abundance (concentration: 0.5mM)
UniProt P52564,0.994 ± 0.029,0.981 ± 0.025
UniProt P50570-4|P50570 and related entries,0.995 ± 0.017,0.998 ± 0.048
UniProt P48059-5,1.009 ± 0.0091,0.987 ± 0.047
MLH1 (UniProt P40692),1.04 ± 0.054,1.08 ± 0.048
USP14 (UniProt P54578),1.02 ± 0.015,1.01 ± 0.028
SRP9 (UniProt P49458),1.04 ± 0.11,1.09 ± 0.18
PRKX (UniProt P51817),0.953 ± 0.074,0.9658 ± 0.0083
UniProt P50750 and related entries,1.03 ± 0.035,1.04 ± 0.081
ARHGDIB (UniProt P52566),0.9881 ± 0.0089,1.02 ± 0.037
FXR2 (UniProt P51116),0.997 ± 0.043,0.994 ± 0.015
CCT6A (UniProt P40227),0.859 ± 0.27,1.11 ± 0.22
UniProt P46020-2|A6NMN0 and related entries,0.99 ± 0.038,0.97 ± 0.032
HLCS (UniProt P50747),0.9936 ± 0.0096,0.972 ± 0.019
UniProt P54277 and related entries,1.03 ± 0.067,1.03 ± 0.024
UniProt P49840,1.04 ± 0.046,1.05 ± 0.045
UniProt P49916 and related entries,1.01 ± 0.024,0.996 ± 0.022
UniProt P51149,0.988 ± 0.022,0.984 ± 0.065
UniProt P48449 and related entries,1.03 ± 0.036,0.976 ± 0.084
CASP3 (UniProt P42574),1.03 ± 0.038,0.999 ± 0.039
UniProt P49674,0.989 ± 0.017,0.98 ± 0.031
GNAQ (UniProt P50148),0.998 ± 0.014,1.01 ± 0.037
UniProt P40855 and related entries,1.02 ± 0.018,1.08 ± 0.063
NOTCH1 (UniProt P46531),1.01 ± 0.023,0.983 ± 0.034
UniProt P50053 and related entries,1 ± 0.016,1 ± 0.036

# An excerpt of these results, with tabs.
Target	NP40-soluble protein abundance (concentration: 0.1mM)	NP40-soluble protein abundance (concentration: 0.5mM)
FXR2 (UniProt P51116)	0.997 ± 0.043	0.994 ± 0.015
CCT6A (UniProt P40227)	0.859 ± 0.27	1.11 ± 0.22

# (listing goes on)

Target,NP40-soluble protein abundance (concentration: 0.1mM),NP40-soluble protein abundance (concentration: 0.5mM)
UniProt P50995 and related entries,1 ± 0.057,1.01 ± 0.047
UniProt P41214,0.993 ± 0.025,0.9888 ± 0.0083
UniProt P51513 and related entries,0.973 ± 0.038,1.01 ± 0.026
UniProt P47813,0.977 ± 0.042,1.01 ± 0.079
UniProt P51148 and related entries,0.989 ± 0.04,0.987 ± 0.058
FNTA (UniProt P49354),1 ± 0.049,0.989 ± 0.043
UniProt P42285,1.03 ± 0.019,1.02 ± 0.052
TMED10 (UniProt P49755),1 ± 0.032,1.04 ± 0.061
MTHFS (UniProt P49914),0.982 ± 0.018,0.977 ± 0.015
UniProt P49588 and related entries,0.989 ± 0.013,1.01 ± 0.012
SLC19A1 (UniProt P41440),1 ± 0.037,1 ± 0.021
TUFM (UniProt P49411),1.03 ± 0.061,0.979 ± 0.068
UniProt P46976 and related entries,1.02 ± 0.014,1.01 ± 0.034
NT5C2 (UniProt P49902),1.03 ± 0.031,1.05 ± 0.086
PPOX (UniProt P50336),1.02 ± 0.032,1.012 ± 0.0063
PLK1 (UniProt P53350),1.038 ± 0.0026,1.04 ± 0.04
DUSP3 (UniProt P51452),0.999 ± 0.036,1 ± 0.028
ETV6 (UniProt P41212),1.0268 ± 0.00044,0.985 ± 0.042
PPT1 (UniProt P50897),0.987 ± 0.036,1.01 ± 0.086
UniProt P51532 and related entries,0.987 ± 0.025,1.04 ± 0.051
GSS (UniProt P48637),1.02 ± 0.015,0.982 ± 0.028
CENPF (UniProt P49454),0.998 ± 0.027,1 ± 0.046
UniProt P48454 and related entries,0.971 ± 0.017,0.99 ± 0.019
UniProt P43034 and related entries,1.01 ± 0.033,1.03 ± 0.03

Target,NP40-soluble protein abundance (concentration: 0.1mM),NP40-soluble protein abundance (concentration: 0.5mM)
UniProt P49321 and related entries,0.937 ± 0.026,0.971 ± 0.04
PIP4K2A (UniProt P48426),0.974 ± 0.015,0.969 ± 0.052
EIF2S3 (UniProt P41091),1.01 ± 0.022,1.06 ± 0.035
RECQL (UniProt P46063),1 ± 0.035,0.981 ± 0.045
SLC12A2 (UniProt P55011),0.98 ± 0.022,0.969 ± 0.034
UniProt P52758,0.988 ± 0.034,1.03 ± 0.059
NEK4 (UniProt P51957),1.04 ± 0.064,0.975 ± 0.082
UniProt P50851 and related entries,0.992 ± 0.011,0.973 ± 0.043
UniProt P52824 and related entries,0.967 ± 0.018,0.974 ± 0.012
CBX5 (UniProt P45973),0.966 ± 0.031,1.03 ± 0.076
RFC5 (UniProt P40937),1.02 ± 0.022,1.03 ± 0.058
UniProt P46013 and related entries,0.981 ± 0.011,1.03 ± 0.036
SLC16A1 (UniProt P53985),0.987 ± 0.029,0.989 ± 0.049
CAPZA1 (UniProt P52907),0.9894 ± 0.0096,1 ± 0.038
UniProt P49368 and related entries,1.01 ± 0.024,0.985 ± 0.034
UniProt P46934-4|H0Y9L1,1.04 ± 0.017,0.968 ± 0.054
HIRA (UniProt P54198),1.02 ± 0.011,0.9991 ± 0.0082
MAGEA9 (UniProt P43362),0.981 ± 0.014,1.022 ± 0.0077
CDKN2D (UniProt P55273),1.01 ± 0.0093,1.01 ± 0.013
UniProt P55072,0.992 ± 0.02,0.997 ± 0.011
CETN2 (UniProt P41208),0.988 ± 0.043,1.04 ± 0.097
UniProt P52630 and related entries,1.01 ± 0.033,0.998 ± 0.035
MARCKSL1 (UniProt P49006),0.994 ± 0.06,1.03 ± 0.15
HINT1 (UniProt P49773),0.956 ± 0.018,0.969 ± 0.018

Target,NP40-soluble protein abundance (concentration: 0.1mM),NP40-soluble protein abundance (concentration: 0.5mM)
ARHGDIA (UniProt P52565),0.96 ± 0.016,0.9502 ± 0.004
RAB27A (UniProt P51159),0.984 ± 0.058,1.02 ± 0.026
MDH2 (UniProt P40926),0.98 ± 0.035,0.992 ± 0.012
UniProt P53384 and related entries,0.988 ± 0.032,1.02 ± 0.031
UniProt P54725 and related entries,1.01 ± 0.011,1.04 ± 0.046
PPP1R2 (UniProt P41236),1.04 ± 0.029,1.07 ± 0.056
UniProt P51572 and related entries,0.972 ± 0.018,1.01 ± 0.045
GMPS (UniProt P49915),1 ± 0.013,0.993 ± 0.023
UniProt P51812,1.07 ± 0.038,0.996 ± 0.092
IQGAP1 (UniProt P46940),0.99 ± 0.019,0.999 ± 0.03
RABGGTB (UniProt P53611),1.03 ± 0.024,1.04 ± 0.075
KPNA2 (UniProt P52292),1 ± 0.039,0.987 ± 0.029
RPL14 (UniProt P50914),1.07 ± 0.04,0.988 ± 0.047
THOP1 (UniProt P52888),0.966 ± 0.033,0.979 ± 0.076
KNTC1 (UniProt P50748),1 ± 0.04,0.97 ± 0.08
UniProt P49748 and related entries,1 ± 0.038,0.975 ± 0.07
STAT1 (UniProt P42224),0.996 ± 0.012,0.99 ± 0.02
UniProt P49796 and related entries,0.9877 ± 0.0052,0.989 ± 0.013
IDH2 (UniProt P48735),0.982 ± 0.021,0.984 ± 0.013
SEC24C (UniProt P53992),0.9933 ± 0.0099,0.99 ± 0.035
POLR2K (UniProt P53803),1.04 ± 0.028,1.02 ± 0.026
UniProt P54136 and related entries,1.05 ± 0.021,1.01 ± 0.068
UniProt P49589 and related entries,0.996 ± 0.024,1.003 ± 0.0025
UQCRFS1 (UniProt P47985),1.02 ± 0.042,1.04 ± 0.059

# Nothing new here: entries from further up.
Target,NP40-soluble protein abundance (concentration: 0.1mM),NP40-soluble protein abundance (concentration: 0.5mM)
RAB27A (UniProt P51159),0.984 ± 0.058,1.02 ± 0.026
MDH2 (UniProt P40926),0.98 ± 0.035,0.992 ± 0.012
UniProt P53384 and related entries,0.988 ± 0.032,1.02 ± 0.031
UniProt P54725 and related entries,1.01 ± 0.011,1.04 ± 0.046

# Further records follow:

Target,NP40-soluble protein abundance (concentration: 0.1mM),NP40-soluble protein abundance (concentration: 0.5mM)
HDGF (UniProt P51858),0.9302 ± 0.0077,1.02 ± 0.065
GCLC (UniProt P48506),1.01 ± 0.011,0.969 ± 0.059
EMD (UniProt P50402),0.961 ± 0.045,0.954 ± 0.047
UniProt P42331 and related entries,1.01 ± 0.025,0.983 ± 0.027
STAT6 (UniProt P42226),0.9867 ± 0.0047,0.9956 ± 0.0047
UniProt P48047,1.01 ± 0.032,1.03 ± 0.065
UniProt P50613,1.01 ± 0.013,1.01 ± 0.042
CSK (UniProt P41240),0.986 ± 0.037,0.984 ± 0.024
TXLNA (UniProt P40222),0.979 ± 0.085,1.04 ± 0.14
UniProt P53677 and related entries,1.02 ± 0.024,1.03 ± 0.038
UniProt P49757 and related entries,1.02 ± 0.019,1.01 ± 0.048
SLC25A1 (UniProt P53007),0.989 ± 0.02,0.957 ± 0.084
SMARCA2 (UniProt P51531),0.999 ± 0.014,0.999 ± 0.032
SERPINH1 (UniProt P50454),0.98 ± 0.022,0.974 ± 0.031
GTF2A1 (UniProt P52655),0.988 ± 0.018,1.01 ± 0.043
ELL (UniProt P55199),0.991 ± 0.029,0.9878 ± 0.0077
HSPA13 (UniProt P48723),1.02 ± 0.062,0.994 ± 0.029
SEC13 (UniProt P55735),1 ± 0.028,1 ± 0.061
RANBP2 (UniProt P49792),0.989 ± 0.044,1.03 ± 0.034
ADK (UniProt P55263),0.99 ± 0.032,0.986 ± 0.049
UniProt P42568 and related entries,0.999 ± 0.042,1.02 ± 0.041
EPS15 (UniProt P42566),0.993 ± 0.019,0.984 ± 0.04
UniProt P45984 and related entries,1.02 ± 0.04,1.01 ± 0.024
EIF5 (UniProt P55010),0.965 ± 0.018,1.03 ± 0.039
